# PubChem BioAssay AID1508600 (Functional Genomics Laboratory (NCATS/FGL), 2020)
# The campaign covered roughly 53,000 sequences. About 3,700 (7%) were called active.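 The calls were made as follows: active = gene knockdowns whose robust z-score for IL-1 alpha signal is at least 2 or at most -2, so actives lie on both sides; inactive = the rest.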 Some of the results follow.
# Assay: Components of the Cytosolic LPS Sensing Pathway: Gene Identification via Genome-wide siRNA Screen;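 also: robust z of the log signal after scaling to non-targeting control siRNA wells of the plate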
# Settings: RAW264.7 macrophages, IL-1a HTRF, actives lie on both sides, screened at 100 nM (by protocol), cells primed 5 h with Pam3CSK4 first
# Procedure, shortened: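 RAW264.7 mouse macrophages reverse-transfected with single siRNAs (100 nM final) for 48h, primed with Pam3CSK4 for 5 hours, then transfected with LipidA for 24 hour. Supernatant IL-1a read by HTRF; values normalized to negative-control median, log-transformed robust z-scores.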
row,Sequence,z-score
1,GGCGUGUGCAAGAAAAUCGTT against Cacng3,active: 2.53
2,GGCUCCAUCAAGAAAAGUUTT against Usp21,inactive: 0.681
3,GGUGAACACUCUUUUGGAATT against Rab11fip2,inactive: 0.5
4,GGCACAUUCAACAACAUUUTT against Zfp592,inactive: 1.61
5,GGAGAAGAUGAUGUACUGUTT against Bub1b,inactive: -0.204
6,CGCUCAAACCAAAGUUCCUTT against Lin28b,inactive: 0.63
7,CCAGAUGCUCGAUUCAGUGTT against Crim1,inactive: -0.44
8,CCAUACAUUGGAUCAAAGCTT against Rae1,inactive: -0.979
9,GCCAUCACAAGUGAGUUCATT against Olfr951,inactive: -0.524
10,GGUUUUCAAUUUUACACACTT against Dtnbp1,inactive: 1.25
11,GGAGAAAUUCUAUGGUAUUTT against 5031434C07Rik,active: 2.18
12,GGUGUUUCAGAGGCCAAACTT against Stfa1,inactive: 1.25
13,CGUUGAUCCUUUUCAACAUTT against Olfr881,inactive: 0.8
14,GAACAAGGAGAAAUUCUUGTT against Ms4a4c,inactive: -1.37
15,GCUGUGCAAGCAAUAUCUATT against Hnrnpm,inactive: 0.423
16,CCUACAUCAAUAGGAGUUUTT against Ubash3b,inactive: 0.627
17,GGCUCUCAAGAAGAGCAAGTT against Ccdc106,inactive: 1.12
18,GGAAUCCUGCCAUGAUGCATT against Ubqln2,inactive: -0.0777
19,GGGUUUGCACUAGUUUAUUTT against Rap1a,inactive: 0.632
20,GGAAAAGAUUGGUGAAGGUTT against Gjb5,inactive: -1.21
21,GGAAGUUACUGUCGAGUACTT against Olfr115,inactive: 1.61
22,GGAAUCUGGGCAAAUCUGGTT against Kcnab2,inactive: 0.467
23,CCUUUGAUCAAUUCUGAGUTT against Glb1,inactive: -0.554
24,GGAGAAAACUAAAUAAGCATT against Vmp1,inactive: -0.841
25,GGGACCUUAGAAGAUUGGGTT against Sart3,inactive: -0.0829
26,GGGUAAACUCAGGCACCUCTT against Ocel1,inactive: -0.217
27,GUAGUAACUCCUACAUUGATT against Olfr133,inactive: 0.165
28,GCAUGAGGCUUUAUUUGACTT against Wwp2,inactive: -0.418
29,GCCAGAUCGCUAAAAUCGUTT against Mtfr1l,inactive: -0.22

# Reformatted: results already given
row | Sequence | z-score
1 | GGCGUGUGCAAGAAAAUCGTT against Cacng3 | active: 2.53
9 | GCCAUCACAAGUGAGUUCATT against Olfr951 | inactive: -0.524
13 | CGUUGAUCCUUUUCAACAUTT against Olfr881 | inactive: 0.8
15 | GCUGUGCAAGCAAUAUCUATT against Hnrnpm | inactive: 0.423
20 | GGAAAAGAUUGGUGAAGGUTT against Gjb5 | inactive: -1.21
22 | GGAAUCUGGGCAAAUCUGGTT against Kcnab2 | inactive: 0.467
